Data from patent US5486595A (Centecor, Inc., priority 1994, dated 1996).

assay: general procedure: Boc solid-phase peptide synthesis; 4-Methyl benzhydrylamine resin (Boc-Leu-PAM resin for one peptide); conditions: whole synthesis, scale 0.5 mmol

| Substance | crude mass [mg] |
| --- | --- |
| Prolyl-glutaminyl-isoleucyl-glutamyl-asparaginyl-valyl-lysyl-glycyl-threonyl-glutamyl-asparaginyl-seryl-glycyl-threonyl-threonine Amide | 790 |
| Glutamyl-alanyl-glutamyl-seryl-glycyl-seryl-phenylalanyl-threonyl-alanyl-seryl-glutamyl-asparaginyl-histidyl-leucyl-arginine Amide | 783 |
| Seryl-leucyl-glutamyl-alanyl-threonyl-lysyl-leucyl-alanyl-leucyl-prolyl-glutaminyl-isoleucyl-glutamyl-asparaginyl-valine Amide | 815 |
| Aspartyl-threonyl-valyl-alanyl-glycyl-alanyl-arginyl-lysyl-asparaginyl-glutaminyl-tyrosyl-arginyl-histidyl-tyrosyl-tryptophan Amide | 1190 |
| Leucyl-alanyl-leucyl-prolyl-glutaminyl-isoleucyl-glutamyl-asparaginyl-valyl-lysyl-glycyl-threonyl-glutamyl-aspartyl-serine Amide | 943 |
| Acetyl-leucyl-phenylalanyl-glutaminyl-alanyl-phenylalanyl-asparaginyl-alanyl-seryl-leucyl-alanyl-leucyl-asparaginyl-glycyl-threonyl-valine Amide | 839 |
| Lysyl-glutaminyl-asparaginyl-threonyl-valyl-alanyl-threonyl-alanyl-histidyl-alanyl-glycyl-phenylalanyl-phenylalanyl-leucyl-arginine Amide | 743 |
| Acetyl-glutaminyl-tyrosyl-arginyl-histidyl-tyrosyl-tryptophyl-seryl-glutamyl-asparaginyl-leucyl-phenylalanyl-glutaminyl-alanyl-phenylalanyl-asparagineAmide | 780 |
| Glycyl-prolyl-glycyl-glutaminyl-aspartyl-threonyl-aspartyl-alanyl-arginyl-glutamyl-alanyl-glutamyl-seryl-glycyl-serine Amide | 960 |
| Glutaminyl-glutamyl-lysyl-glutaminyl-asparaginyl-threonyl-valyl-alanyl-threonyl-alanyl-histidyl-alanyl-glycyl-phenylalanyl-phenylalanyl-leucyl-arginyl-glutamyl-asparaginyl-glutamic Acid Amide | 976 |
| Acetyl-alanyl-phenylalanyl-asparaginyl-alanyl-seryl-leucyl-alanyl-leucyl-asparaginyl-glycyl-threonyl-valyl-histidyl-leucyl-serine Amide | 585 |
| Glutaminyl-aspartyl-threonyl-aspartyl-alanyl-arginyl-glutamyl-alanyl-glutamyl-seryl-glycyl-seryl-phenylalanyl-threonyl-alanine Amide | 660 |

assay: general procedure: Boc solid-phase peptide synthesis; 4-Methyl benzhydrylamine resin; conditions: whole synthesis, scale 0.5 mmol

| Substance | crude mass [mg] |
| --- | --- |
| Leucyl-tyrosyl-asparaginyl-aspartyl-alanyl-prolyl-glycyl-prolyl-glycyl-glutaminyl-aspartyl-threonyl-aspartyl-alanyl-arginine Amide | 720 |

assay: general procedure: Boc solid-phase peptide synthesis; Boc-Leu-PAM resin; conditions: whole synthesis, scale 0.5 mmol

| Substance | crude mass [mg] |
| --- | --- |
| Arginyl-glutamyl-asparaginyl-glutamyl-cysteinyl-valyl-seryl-cysteinyl-seryl-asparaginyl-cysteinyl-lysyl-lysyl-seryl-leucyl-glutamyl-cysteinyl-threonyl-lysyl-leucine | 652 |
